{"source": "paper PMC11213860", "about": "“Competitive protein recruitment in artificial cells” (Communications Chemistry, 2024)", "test": "Local concentration of 14-3-3 in coacervates by confocal microscopy with fluorescence calibration curve"}
{"substance": "14-3-3-His: fluorescently labeled His-tagged 14-3-3 hub protein loaded in coacervates (DyLight 405-labeled 14-3-3γ in Supplementary Fig. 1)", "values": [{"measurement": "median local concentration of 14-3-3 in the coacervates", "setting": "bulk concentration 100 nM, DyLight 405-labeled, corrected for degree of labeling", "value": "35 ± 11", "unit": "µM"}, {"measurement": "enhancement of concentration compared to the bulk concentration", "setting": "local versus bulk concentration of 100 nM", "value": 350, "unit": "fold"}]}
